Experimental findings from patent publication US20220265821A1 are described below.

Assay [1] concerns the target human Ig lambda light chain (on the human B cell line Ramos) (human). The assay can be described thus: flow cytometry on Ramos cells. A general note: A flow cytometer gives signals particle by particle.
Assay [2] addresses human Ig kappa light chain (on the human B cell line Raji) (human). The assay can be described thus: flow cytometry on Raji cells.

Results are given in words; binding and its absence hold for the method and conditions named.

B1: lambda-5 antibody 4-7A6 (mouse mAb purified from hybridoma) (antibody, V domains shown)
VH: EVQLQQSGTVLARPGTSVKMSCKASGYTFTSYWMHWVKQRPGQGLEWIGAIYLGNTDTSYNQKFKGKAKLTAVTSASSAYMELSSLTNEDSAVYYCTRADYDGTPFDYWGQGTTLTVSS
VL: DVVMTQNALTLSVTIGHPASISCRSSQSLLDSDGETYLSWLLQRPGQSPKRLIYLVSKLDSGVPDRFTGSGSGTDFTLKISRVEAEDLGVYYCWQGTHFPLTFGAGTKLELKR
Turning to B1, the binding entry in assay [1] and in assay [2] was “no binding (tested: 20 nM)” in each case.

B2: VpreB antibody 5-2D7 (recombinant mouse-human chimeric IgG1/kappa) (antibody, V domains shown)
VH: QVQLQQPGAELVKPGASVKLSCKASGYTFTSYWMQWVKQRPGQGLEWIGEINPSNGRINYNEKFKSKATLTVDISSSTAYMQLSSLTSEDSAVYYCARSGLLDYWGQGTTLTDSS
VL: DVLMTQTPLSLPVSLGDQASISCRSSQSLIHSNGNTYLHWSLQKPGQSPKLLIYKVSNRFSGVPDRFSGSGSGTDFTLKISSVEAEDLGVYFCSQSTYVPLTFGAGTKLELKR
Regarding B2, the binding entry in assay [1] and in assay [2] was “no binding (tested: 20 nM)” each time.

B3: VpreB antibody 5-14H5 (recombinant mouse-human chimeric IgG1/kappa) (antibody, V domains shown)
VH: QVQLQQPGAELVKPGASVKLSCKASGYTFTSNWMNWVKQRPGQGLEWIGEINPSNGRINYNEKFKSKATLTVDKSSSTAYMQLSSLTSEDSAVYYCARSGLLDYWGQGTTLTVSS
VL: DVLMTQTPLSLPVSLGDQASISCRSSQSLVHSNGNTYLHWYLQKPGQSPKLLIYKVSNRFSGVPDRFSGSGSGTDFTLKISRVEAEDLGVYFCSQSTYLPLTFGAGTRLELKR
On to B3, for which the binding result in assay [1] and in assay [2] was “no binding (tested: 20 nM)” each time.

B4: VpreB antibody 5-14A8 (recombinant mouse-human chimeric IgG1/kappa) (antibody, V domains shown)
VH: EVQLEESGPSLVKPSQTLSLTCSVTGDSITSDYWTWIRKFPGNILEYMGYISSSGRIYYNPSLKSRISITRDTSKNQYYLQLSSVTTEDTATYYCARERYYYGSLDYWGQGTTLTVSS
VL: DVLMTQTPLSLPVSLGDQASISCRSSQGLVHSNGNTYLHWYLQKPGQSPKLLIYKVSNRFSGVPDRFSGSGSGTDFTLKISRVEAEDLGVYFCSQTTHVPPTFGGGTKLEIKR
Regarding B4, the binding entry in assay [1] and in assay [2] was “no binding (tested: 20 nM)” each time.

B5: lambda-5 antibody 4-15E6 (recombinant mouse-human chimeric IgG1/kappa) (antibody, V domains shown)
VH: EVQLEESGAELVRSGASVKLSCTASGFNIKDYYLHWVKQRPEQGLEWIGWIDPENGNTDYAPKFQGKATMTADTSSNTAYLQLSSLTSEDTAVYYCNEGYYDYDTDSAMDYWGQGTSVTVSS
VL: DVLMTQTPLSLPVSLGDQASISCRSSQSLVHSDGITYLHWYLQKPGQSPKLLIYKVSNRFSGVPDRFSGSGSGTDFTLKISRVEAEDLGVYFCSQSTRVPWTFGGGTKLEIKR
With B5, the binding entry in assay [1] and in assay [2] was “no binding (tested: 20 nM)” in each case.

B6: VpreB antibody 5-4A9 (recombinant mouse-human chimeric IgG1/kappa) (antibody, V domains shown)
VH: EVQLQQSGAELVKPGASVQLSCKASGYTFTSYWMQWVKQRPGQGLEWIGEINPSNGRNNYNEKFKRKATLTVDTSSSTAYMQLSSLTSEDSAVYYCARSGLLDYWGQGTTLTVSS
VL: DVLMTQTPLSLPVSLGDQASISCRSSQSLVHSNGNTYLHWYLQKPGQSPKLLIYKVSNRFSGVPDRFSGSGSGTDFTLTISRVEAEDLGVYFCSQSTYVPLTFGAGTKLELKR
As for B6, the binding entry in assay [1] and in assay [2] was “no binding (tested: 20 nM)” throughout.
